In publication PMC7738489, “Use of cyclic peptides to induce crystallization: case study with prolyl hydroxylase domain 2” (Scientific Reports, 2020):
No constants are given. Whether binding was seen depends on the method and setting.

Protein sequences, listed by entry. Tags and fused reporters are not part of them. Residues count along the entry.
UniProt Q9GZT9, residues 181-407: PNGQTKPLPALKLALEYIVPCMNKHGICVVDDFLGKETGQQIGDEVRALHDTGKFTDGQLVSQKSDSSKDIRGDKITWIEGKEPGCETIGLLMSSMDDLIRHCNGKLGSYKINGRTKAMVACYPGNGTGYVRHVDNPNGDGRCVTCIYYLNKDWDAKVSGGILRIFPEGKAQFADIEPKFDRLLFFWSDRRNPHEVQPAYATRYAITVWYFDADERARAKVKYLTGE

Target: PHD2_(181-407) (catalytic domain construct of human hypoxia-inducible factor prolyl hydroxylase 2) (human) (UniProt Q9GZT9)
Test: SEC-MALS; cPHD2 with and without 3C; both purified

Substance: PHD2_(181-407) (catalytic domain construct of human hypoxia-inducible factor prolyl hydroxylase 2) (from UniProt Q9GZT9 181-407) (domain or fragment)
- binding: no binding
